Assay results reported in patent US3954995A, “Mono-and disubstituted hydroxyguanidines in the treatment of depression” (E. I. Du Pont de Nemours and Company, priority 1974, dated 1976).
For at least one compound, name, drawing or mass did not settle the structure.

Test system: tetrabenazine-induced sedation in mice
Assay: Antitetrabenazine test: prevention of tetrabenazine-induced sedation and depression (exploratory activity and ptosis)
Format: in vivo, mice (Carworth CF1 S female)
Conditions: relief of ptosis as the criterion
Description: This mouse test is predictive of human antidepressant response (Everett, G. M., "The Dopa Response Potentiation Test and Its Use in Screening for Antidepressant Drugs", pp. 164-167 in "Antidepressant Drugs", Proceedings of the First International Symposium, S. Garattini and M. N. G. Dukes, eds., 1967).
Groups of 10 Carworth CF1 S female mice, 18-21 g each, were fasted 1.5 hours and were intubated with a hydroxyguanidine as antagonist to tetrabenazine at oral doses of 5, 25 and 125 mg/kg in 0.20 ml of 1% methyl cellulose (Methocel.) Thirty minutes later the mice were challenged with tetrabenazine, 32 mg/kg intraperitoneally (dissolved in 0.20 ml of 0.05M KCl at pH 2.0). One hour after the hydroxyguanidine compound (30 minutes after tetrabenzine) the mice were examined for signs of exploratory activity and ptosis (eye-lid closure). Normal exploratory activity (relief from sedation) was recorded when a mouse lifted by the tail from a group of 10 in a testing box and placed on a stainless steel testing box lid (12.5 inch × 8 inch × 0.33 inch mesh) either turned its head horizontally 30° or moved to the edge of the screen withi 10 seconds after being placed on the screen. Relief from ptosis was recorded when exactly 2 seconds after placing the mouse facing the observer, lid closure was less than 50% in both eyes.

SMILES: CN(Cc1ccccc1)C(N)=NO [Example 2, 1-benzyl-1-methylhydroxyguanidine]
- Prevention of tetrabenazine-induced sedation (in words): potent in preventing tetrabenazine-induced sedation in mice
